Reference: publication PMC8605363

T1: CBLL1 (human (endogenous in HUVEC)) (UniProt Q75N03)
T1 sequence: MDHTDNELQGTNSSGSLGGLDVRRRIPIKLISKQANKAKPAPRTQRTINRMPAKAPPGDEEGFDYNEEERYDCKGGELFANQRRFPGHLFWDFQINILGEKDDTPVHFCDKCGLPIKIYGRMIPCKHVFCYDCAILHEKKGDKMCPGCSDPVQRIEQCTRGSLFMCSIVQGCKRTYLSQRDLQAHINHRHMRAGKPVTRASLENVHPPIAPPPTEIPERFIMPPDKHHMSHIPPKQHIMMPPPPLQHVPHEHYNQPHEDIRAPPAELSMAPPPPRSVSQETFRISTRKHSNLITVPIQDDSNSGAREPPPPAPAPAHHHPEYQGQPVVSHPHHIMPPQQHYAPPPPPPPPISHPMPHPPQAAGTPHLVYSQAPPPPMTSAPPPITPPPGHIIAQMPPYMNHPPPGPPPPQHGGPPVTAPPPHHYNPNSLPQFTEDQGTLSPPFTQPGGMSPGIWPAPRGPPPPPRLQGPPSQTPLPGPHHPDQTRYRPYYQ


Molecular target: T1, CBLL1 (human (endogenous in HUVEC))
Experiment: affinity purification with mass spectrometry; endogenous CBLL1 immunopurified from HUVEC whole cell lysates (lysis buffer with 250 mM KCl, 0.1% NP-40, Benzonase) with anti-CBLL1 monoclonal antibodies cross-linked to Dynabeads Protein G, 4 h at 4 °C; washed with 0.5 M KCl-HEGN and 0.1 M KCl-HEGN; shotgun LC/MS/MS; negative control anti-gp64 antibody

Binder	binding
cleavage and polyadenylation-specific factor CPSF1 (protein, UniProt Q10570 1-1443) MYAVYKQAHPPTGLEFSMYCNFFNNSERNLVVAGTSQLYVYRLNRDAEALTKNDRSTEGKAHREKLELAASFSFFGNVMSMASVQLAGAKRDALLLSFKDAKLSVVEYDPGTHDLKTLSLHYFEEPELRDGFVQNVHTPRVRVDPDGRCAAMLVYGTRLVVLPFRRESLAEEHEGLVGEGQRSSFLPSYIIDVRALDEKLLNIIDLQFLHGYYEPTLLILFEPNQTWPGRVAVRQDTCSIVAISLNITQKVHPVIWSLTSLPFDCTQALAVPKPIGGVVVFAVNSLLYLNQSVPPYGVALNSLTTGTTAFPLRTQEGVRITLDCAQATFISYDKMVISLKGGEIYVLTLITDGMRSVRAFHFDKAAASVLTTSMVTMEPGYLFLGSRLGNSLLLKYTEKLQEPPASAVREAADKEEPPSKKKRVDATAGWSAAGKSVPQDEVDEIEVYGSEAQSGTQLATYSFEVCDSILNIGPCANAAVGEPAFLSEEFQNSPEPDLEIVVCSGHGKNGALSVLQKSIRPQVVTTFELPGCYDMWTVIAPVRKEEEDNPKGEGTEQEPSTTPEADDDGRRHGFLILSREDSTMILQTGQEIMELDTSGFATQGPTVFAGNIGDNRYIVQVSPLGIRLLEGVNQLHFIPVDLGAPIVQCAVADPYVVIMSAEGHVTMFLLKSDSYGGRHHRLALHKPPLHHQSKVITLCLYRDLSGMFTTESRLGGARDELGGRSGPEAEGLGSETSPTVDDEEEMLYGDSGSLFSPSKEEARRSSQPPADRDPAPFRAEPTHWCLLVRENGTMEIYQLPDWRLVFLVKNFPVGQRVLVDSSFGQPTTQGEARREEATRQGELPLVKEVLLVALGSRQSRPYLLVHVDQELLIYEAFPHDSQLGQGNLKVRFKKVPHNINFREKKPKPSKKKAEGGGAEEGAGARGRVARFRYFEDIYGYSGVFICGPSPHWLLVTGRGALRLHPMAIDGPVDSFAPFHNVNCPRGFLYFNRQGELRISVLPAYLSYDAPWPVRKIPLRCTAHYVAYHVESKVYAVATSTNTPCARIPRMTGEEKEFETIERDERYIHPQQEAFSIQLISPVSWEAIPNARIELQEWEHVTCMKTVSLRSEETVSGLKGYVAAGTCLMQGEEVTCRGRILIMDVIEVVPEPGQPLTKNKFKVLYEKEQKGPVTALCHCNGHLVSAIGQKIFLWSLRASELTGMAFIDTQLYIHQMISVKNFILAADVMKSISLLRYQEESKTLSLVSRDAKPLEVYSVDFMVDNAQLGFLVSDRDRNLMVYMYLPEAKESFGGMRLLRRADFHVGAHVNTFWRTPCRGATEGLSKKSVVWENKHITWFATLDGGIGLLLPMQEKTYRRLLMLQNALTTMLPHHAGLNPRAFRMLHVDRRTLQNAVRNVLDGELLNRYLYLSTMERSELAKKIGTTPDIILDDLLETDRVTAHF	binds
cleavage and polyadenylation-specific factor CPSF2 (protein, UniProt Q9P2I0 1-782) MTSIIKLTTLSGVQEESALCYLLQVDEFRFLLDCGWDEHFSMDIIDSLRKHVHQIDAVLLSHPDPLHLGALPYAVGKLGLNCAIYATIPVYKMGQMFMYDLYQSRHNTEDFTLFTLDDVDAAFDKIQQLKFSQIVNLKGKGHGLSITPLPAGHMIGGTIWKIVKDGEEEIVYAVDFNHKREIHLNGCSLEMLSRPSLLITDSFNATYVQPRRKQRDEQLLTNVLETLRGDGNVLIAVDTAGRVLELAQLLDQIWRTKDAGLGVYSLALLNNVSYNVVEFSKSQVEWMSDKLMRCFEDKRNNPFQFRHLSLCHGLSDLARVPSPKVVLASQPDLECGFSRDLFIQWCQDPKNSIILTYRTTPGTLARFLIDNPSEKITEIELRKRVKLEGKELEEYLEKEKLKKEAAKKLEQSKEADIDSSDESDIEEDIDQPSAHKTKHDLMMKGEGSRKGSFFKQAKKSYPMFPAPEERIKWDEYGEIIKPEDFLVPELQATEEEKSKLESGLTNGDEPMDQDLSDVPTKCISTTESIEIKARVTYIDYEGRSDGDSIKKIINQMKPRQLIIVHGPPEASQDLAECCRAFGGKDIKVYMPKLHETVDATSETHIYQVRLKDSLVSSLQFCKAKDAELAWIDGVLDMRVSKVDTGVILEEGELKDDGEDSEMQVEAPSDSSVIAQQKAMKSLFGDDEKETGEESEIIPTLEPLPPHEVPGHQSVFMNEPRLSDFKQVLLREGIQAEFVGGVLVCNNQVAVRRTETGRIGLEGCLCQDFYRIRDLLYEQYAIV	binds

Results are given in words; binding and its absence hold for the method and conditions named. In cells and extracts the contact can be indirect. These calls come from enrichment with a bait or labelling near it, and not all partners need be listed.
